The record followed here is publication PMC12040169 (PLOS Biology, 2025).

This is one part of the list.

The assay concerns T1, CTL2-GFP (C. trachomatis L2/434/Bu, GFP-expressing).
T1 construct: L2/434/Bu, GFP-expressing
More on the design: species or system HeLa; Intracellular C. trachomatis growth in HeLa cells, bulk GFP fluorescence relative to DMSO. To be noted: bulk GFP, single well; 28.5 h, 10 µM; inhibitor.
As to `CSCCCN1CCn2nc(CNc3cnccn3)cc2C1` [CBK307136], the “% of control remaining” value turned out to be 150.945%. The figure for `Cn1nnc2cc(C(=O)N(CCO)c3ccccc3)ccc21` [CBK266522] is 150.746%; for `Cc1ccc(C(=O)NC(Cc2cccs2)c2ccccn2)c(=O)[nH]1` (stereo not shown) [CBK285210] it is 123.655%. In the case of `CCCN1CCC(NC(=O)Cn2c(C3CC3)nc3ccccc32)CC1` [CBK304917], the “% of control remaining” value is 128.972%. The figure for `Cc1cc(C)n2nc(S(N)(=O)=O)c(C#N)c2n1` [CBK025767] is 121.515%; for `O=C(NC(C(=O)N/N=C/c1ccccc1O)c1n[nH]c(=O)c2ccccc12)c1ccccc1` (stereo not shown) [CBK261117] it is 87.9342%; for `O=C(c1cn2cc(-c3cccs3)n(CC3CC3)c(=O)c2n1)N1CCCC1` [CBK306756] it is 117.076%. Consider `CN1CCN(C(=O)c2n[nH]c3c2CCCC3)C(Cc2ccc(-c3cccs3)cc2)C1=O` (stereo not shown) [CBK285812], for which the “% of control remaining” value worked out at 121.544%. In the case of `Cc1ccc(S(=O)(=O)Nc2c(C(=O)N3CCN(C)CC3)[nH]c3ccccc23)cc1[N+](=O)[O-]` [CBK050060], the “% of control remaining” value amounted to 118.101%.

On to `CCSc1nnc(-c2cccc(C)c2)n1CC1CCCO1` (stereo not shown) [CBK085413], for which the “% of control remaining” value is 121.213%. `O=C(Cc1ccc(F)cc1)N1CCn2c(nnc2C2CC2)C1` [CBK283688]: the “% of control remaining” value is on record as 98.4445%.

On to `O=C(NC1CC1)c1ccc(-n2cccn2)c(C#Cc2ccccn2)c1` [CBK282272], for which the “% of control remaining” value is on record as 124.199%.

Turning to `COCCN(C)c1nc2c(c(=O)[nH]1)Cc1ccccc1OC2` [CBK306737], the “% of control remaining” value is listed as 131.734%. As for `O=C(c1ccc2c(c1)C(=O)N(N1C(=O)c3ccccc3C1=O)C2=O)c1ccc2c(c1)C(=O)N(N1C(=O)c3ccccc3C1=O)C2=O` [CBK261182], the “% of control remaining” value stood at 95.4397%. The figure for `Cn1nc(C(C)(C)C)c2cc(C(=O)N3CCn4nccc43)cnc21` [CBK305466] is 104.715%; for `COc1cc(-c2nc(NC(=O)C(C)C)cc3ccccc23)cc(OC)c1OC` [CBK085741] it is 98.0914%. On to `Cc1cccc(CCNC(=O)CC2CCN(C(=O)CC3CCCCC3)CC2)c1` [CBK285964], for which the “% of control remaining” value is reported as 92.238%. The figure for `CCCOC1CCCN(C(=O)c2cncc(F)c2)C1` (stereo not shown) [CBK304623] is 89.3144%. For `O=c1c(C(F)(F)F)cccn1Cc1ccccc1` [CBK023620], the “% of control remaining” value is on record as 107.311%.

Regarding `COc1ccc2oc(C(=O)NC(C)c3cn(C)nc3C)cc2c1` (stereo not shown) [CBK281573], the “% of control remaining” value is listed as 96.1765%. The figure for `Cc1cc(SCC2=NNC(=O)C2)c(Cl)cc1Cl` [CBK067769] is 110.395%; for `CCN(CCO)C(=O)c1cccc(-c2cnn(C(F)F)c2C)c1` [CBK307519] it is 153.131%.
